In patent publication US20210347908A1:
Numbering of substitutions follows the chain as printed. No constants are given. Whether binding was seen depends on the method and setting. Some binding calls cover weakened binding; strength is not graded here. For part of these data: Sequences can lack the tags named with a protein.

Chains of the proteins cited; added tags and fusions are not shown. Lines headed by an entry give the natural chain unless they say otherwise; changes in a name come on top. A line that says so, or that is headed by a name, gives the form on record, which may keep a tag or linker.
6×His tagged human SIRPα v1 ECD recombinant protein (P78324, form named): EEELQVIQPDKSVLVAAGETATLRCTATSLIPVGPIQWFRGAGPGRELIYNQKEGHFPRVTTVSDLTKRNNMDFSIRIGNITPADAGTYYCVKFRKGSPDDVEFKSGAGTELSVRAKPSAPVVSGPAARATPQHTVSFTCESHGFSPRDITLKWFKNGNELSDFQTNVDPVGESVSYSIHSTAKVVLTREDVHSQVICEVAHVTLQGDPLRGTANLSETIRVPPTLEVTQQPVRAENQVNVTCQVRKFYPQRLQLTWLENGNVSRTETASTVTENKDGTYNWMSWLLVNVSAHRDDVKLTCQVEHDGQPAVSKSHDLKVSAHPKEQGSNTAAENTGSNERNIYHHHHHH

T1: 6×His tagged C57BL/6 mouse SIRPα ECD recombinant protein (mouse (C57BL/6)) (UniProt P97797)
T1 sequence: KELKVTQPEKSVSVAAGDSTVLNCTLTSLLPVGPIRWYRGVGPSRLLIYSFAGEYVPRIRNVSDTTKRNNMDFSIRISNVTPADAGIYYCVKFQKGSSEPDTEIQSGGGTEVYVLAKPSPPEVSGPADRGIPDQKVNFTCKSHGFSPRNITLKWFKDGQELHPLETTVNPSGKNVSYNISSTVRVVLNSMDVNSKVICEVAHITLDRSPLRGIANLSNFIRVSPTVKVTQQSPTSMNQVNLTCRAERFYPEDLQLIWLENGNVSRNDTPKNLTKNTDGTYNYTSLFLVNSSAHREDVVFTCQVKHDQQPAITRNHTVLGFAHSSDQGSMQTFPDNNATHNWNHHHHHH

B1: humanized antibody hu035.13 (antibody, V domains shown)
VH: QIQLVQSGSELKKPGASVKVSCKASGYSITNYAMNWVRQAPGQGLEWMGFINTYTGEPTYAQGFKGRFVFSLDTSVSTAYLQISSLKAEDTAVYYCARTRGYYDFDGGAFDYWGQGTLVTVSS
VL: DIQMTQSPSRLGASVGDRVTITCRASQNVGTHLAWYQQKPGKAPKSLIYSAIYRYIGVPSRFSGSGSGTDFTLTISSLQPEDFATYFCQQYNTYPLTFDQGTKLEIKR
B2: humanized antibody hu035.17 (antibody, V domains shown)
VH: B1 VH with K23R, S25R, S28T, I29L, N31D, S84G
VL: B1 VL with R10S, G12S
B3: humanized antibody hu035.10 (antibody, V domains shown)
VH: B1 VH with K23R, S25R, S28T, I29L, N31D, S84G
VL: DIQMTQSPSSLSASVGDRVTITCRASQNVGTHLAWYQQKPGKSPKALIFSAIYRYIGVPSRFSGSGSGTDFTLTISNLQPEDFATYYCQQYNTYPLTFGQGTKLEIK
B4: humanized antibody hu035.03 (antibody, V domains shown)
VH: B1 VH with K23R, S25R, S28T, I29L, N31D, S84G
VL: B3 VL with I52S, N77S
B5: humanized antibody hu035.14 (antibody, V domains shown)
VH: B1 VH with N31D
VL: B3 VL
B6: humanized antibody hu035.09 (antibody, V domains shown)
VH: B1 VH with K23R, S25G, S28T, I29L, N31D, S84G
VL: B3 VL with S43A, A46S, F49Y, N77S
B7: humanized antibody hu035.02 (antibody, V domains shown)
VH: B1 VH with K23R, S25R, S28T, I29L, N31D, S84G
VL: B3 VL with S43A, A46S, F49Y, I52S, N77S
B8: chimeric antibody 035c (antibody, V domains shown)
VH: QIQLVQSGPELRKPGETVKISCKASGYSFTNYAMNWVKQAPGKVLKWMGFINTYTGEPTYADDFKGRFAFSLETSASTAYLQINNLKNEDTATYFCTRTRGYYDFDGGAFDYWGQGTSLTVSS
VL: DIVMTQSQKFMSTSIGDRVSVTCKASQNVGTHLAWYQQKPGQSPKALIFSASYRYIGVPDRFTGSGSGTDFTLTITNVQSEDLAEYFCQQYNTYPLTFGAGTKLELK
B9: chimeric antibody 050c (antibody, V domains shown)
VH: QIQLVQSGPELKKPGETVKISCKASGYTFTHYSMHWVKQAPGKGLKWMGWINTETAEPTYVDDFKGRFAFSLEASASTAFFQINNLKNEDTATYFCARGGLRQGDYWGQGTTLTVSS
VL: QIVLTQSPPIMSASPGEKVTLTCSATSSVSASYLYWFQQKPGSSPKLWIYSTSNLASGVPARFSGSGSGTSYSLTISNMEPADAASYFCHQWSSYPYTFGGGTKLEIK
B10: chimeric antibody 001c (antibody, V domains shown)
VH: EVKLEESGGGLVQPGGSMKLSCVASGFTFRNYWMNWVRQSPERGLEWIAEISLKSNTYATHYAESVKGRFAISRDGSKSSFYLQMNDLRAEDTGIYYCTTFTKVVADWHLDVWGAGTTVTVSS
VL: DVLMTQTPLSLPVSLGDQASISCRSSQNIVHSNGNTYLEWYLQKPGQSPKLLIYKVSNRFSGVPDRFSGSGSGTDFTLRISRVEAEDLGVYYCFQGSHVPFTFGSGTKLEIK
B11: chimeric antibody 002c (antibody, V domains shown)
VH: B10 VH with K19I, S52T, G76D, A90P
VL: B10 VL with V56I, K112Q
B12: chimeric antibody 032c (antibody, V domains shown)
VH: B10 VH with K3R, A24V, S52T, G76D, A90P
VL: B10 VL with S14N
B13: chimeric antibody 055c (antibody, V domains shown)
VH: EVKLVESEGGLVQPGDSMKLSCTASGFTFSDYFMTWIRQVPEKGLEWIANVNYDGRSTYYLDSLKSRFIISRDNANNILYLQMSSLKSEDTATYYCAREGSQTPLYAVDYWGQGTSVTVSS
VL: DIVMTQSQKFMSTTVGDRVNITCKASQNVGTAVAWYQQKPGQSPKLLIYLASNRYTGVPDRFTGSGSGTDFTLTVSDMRSEDLADYFCQQYSIYPFTFGSGTKLEIK
B14: chimeric antibody 022c (antibody, V domains shown)
VH: QIQLVQSGPELKKPGETVKISCKASGYTFTDYAMHWVKQAPGKGLKWMGWKNTETGESTYAEDFKGRFAFFLETSASTAYLQINNVKNEDTATYFCARGGYGSNYVMDYWGQGTSVIVSS
VL: DIQMTQSSSSFSVSLGDRVTITCKASEDIYNRLAWYQQKPGNAPRLLISGATSLETGVPSRFSGSGSGKDYTLSITSLQTEDVATYYCQQYWNSPRTFGGGTKLEIK

These binders were tested against T1, 6×His tagged C57BL/6 mouse SIRPα ECD recombinant protein (mouse (C57BL/6)) (assay: SPR).

binding, binds:
B1
B2
B3

Each binder was assayed against 6×His tagged human SIRPα v1 ECD recombinant protein (human) (UniProt P78324) (assay: SPR).

binding, binds:
B4
B5
B1
B2
B6
B7
B3

Each binder was assayed against T2, chimeric SIRPα of B-hSIRPA mice (IgV domain of human SIRPα; IgC1/C2, transmembrane and intracellular domains of mouse SIRPα) on primary monocytes (human; mouse) (UniProt P78324+P97797) (assay: FACS).

binding, binds:
B8

Each binder was assayed against full length cyno SIRPα stably expressed on CHOK1 cells (cynomolgus monkey) (assay: FACS).

binding, binds:
B4
B5
B1
B2
B6
B7
B3

Each binder was assayed against T1, 6×His tagged C57BL/6 mouse SIRPα ECD recombinant protein (mouse (C57BL/6)) (assay: ELISA).

binding, binds:
B4
B5
B1
B2
B6
B7
B3

Each binder was assayed against full length cyno SIRPα stably expressed on CHOK1 cells (cynomolgus monkey) (assay: FACS, 10 nM).

binding, binds:
B8
B9
B10
B11
B12
B13
B14

What follows are binders tested against T2, chimeric SIRPα of B-hSIRPA mice (IgV domain of human SIRPα; IgC1/C2, transmembrane and intracellular domains of mouse SIRPα) on primary monocytes (human; mouse) (assay: FACS on B-hSIRPA mouse monocytes (IgV)).

binding, binds:
B8

These binders were tested against T1, 6×His tagged C57BL/6 mouse SIRPα ECD recombinant protein (mouse (C57BL/6)) (assay: ELISA on coated mouse SIRPα (C57BL/6) ECD [Continued) F]).

binding, binds:
B8
B4
B5
B1
B2
B6
B7
B3

These binders were tested against T1, 6×His tagged C57BL/6 mouse SIRPα ECD recombinant protein (mouse (C57BL/6)) (assay: ELISA on coated mouse SIRPα (C57BL/6) ECD, antibody at 10, 1 and 0.1 ug/ml [right panel mSIRPα ECD (C57BL/6]).

binding, binds:
B8
